Earlier results as cited in publication PMC6390583 (BMC rheumatology, 2018).

Columns and labels:
[1] = system: IL-6 induced pSTAT3, CD14+ whole blood; conditions: read-out: IC50, IL-6 signaling in human whole blood; monocytes; cited from earlier work
[2] = system: IL-6 induced pSTAT3, CD3+ whole blood; conditions: read-out: IC50, IL-6 signaling in human whole blood; CD3+ T-cells; cited from earlier work

## C[C@@H]1CCN(C(=O)CC#N)C[C@@H]1N(C)c1ncnc2[nH]ccc12 [tofacitinib, reference compound]
[1]
  IC50: 406 nM
[2]
  IC50: 367 nM
